Reference: PMC3100183 (Biochemistry, 2011)

Tested on: 47 KDa protein in U937 cell membranes
Format: binding
Details: U937 cell (mixed) membranes, 1 nM photoprobe

Structure (SMILES): Cc1c(C(=O)NN2CCCCC2)nn(-c2ccc(Cl)cc2Cl)c1-c1ccc(I)cc1 [AM251]
- Inhibition of photolabeling of the 47 KDa protein, in words: not inhibited
